PubChem BioAssay AID504793, Drosophila RNAi Screening Center – 2011

- Assay: 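Genes required for cells to halt at G2/M after double-strand DNA breaks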 (primary screen)
- Cells: Drosophila S2R+ cells
- Knock-down reagent: long dsRNA against Drosophila genes, about 0.25 µg dsRNA per well
- Time to read-out: 4 days of dsRNA, then 4 hours of drug before read-out
- Treatment: doxorubicin 0.5 µM for 4 hours to cause double-strand breaks, in cells also given a low, harmless dose of dsRNA against nbs to sensitise the assay
- Measurement: 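Mitotic index as the number of phospho-histone H3-positive cells in each well following doxorubicin, given as raw counts without normalisation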
- Scale: mitotic cells: higher = more cells in mitosis, weaker G2 arrest
- Active means: 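a call needs confirmation in secondary tests, with other dsRNAs and a check of mitotic timing without damage, not just a high primary count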
- Meaning of the calls: active = confirmed in follow-up tests; inactive = not confirmed
The screen tested about 23,000 reagents; below is a random part of those that have a named target and a result. Over the whole deposit, 62 (0.27%) are marked active. 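Calls come from follow-up tests whose scores are not deposited, so confirmed genes may have low counts here; counts are not normalised per plate.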 The raw values are shown without normalisation. Unmarked entries are inactive.

The first 4 entries, to show the layout:
| mitotic cells, replicate 1 | mitotic cells, replicate 2 | target | dsRNA |
| --- | --- | --- | --- |
| 11 | – | CG11095 | DRSC19375 |
| 3 | – | CG11095 | DRSC26123 |
| 6 | – | CG32202 | DRSC09989 |
| 4 | – | MBD-like | DRSC16996 |

The listing, from the start:
| mitotic cells, replicate 1 | mitotic cells, replicate 2 | target | dsRNA |
| --- | --- | --- | --- |
| 11 | – | CG11095 | DRSC19375 |
| 3 | – | CG11095 | DRSC26123 |
| 6 | – | CG32202 | DRSC09989 |
| 4 | – | MBD-like | DRSC16996 |
| 10 | – | TfIIA-S-2 | DRSC17791 |
| 8 | – | CG16713 | DRSC00477 |
| 16 | – | CG14811 | DRSC17962 |
| 8 | – | Ilp5 | DRSC08998 |
| 10 | – | CG14624 | DRSC18634 |
| 10 | – | CG14624 | DRSC25253 |
| 6 | – | GstE1 | DRSC07437 |
| 2 | – | GstE1 | DRSC24708 |
| 13 | – | p23 | DRSC15158 |
| 8 | – | p23 | DRSC27806 |
| 11 | – | H2.0 | DRSC03340 |
| 10 | – | H2.0 | DRSC22555 |
| 7 | – | Prosbeta5R1 | DRSC04581 |
| 10 | – | Prosbeta5R1 | DRSC29901 |
| 5 | – | Gr22e | DRSC20912 |
| 5 | – | tweek | DRSC02433 |
| 3 | – | tweek | DRSC02434 |
| 20 | – | tweek | DRSC23133 |
| 3 | – | CG18545 | DRSC15343 |
| 1 | – | CG13912 | DRSC08381 |
| 9 | – | sens | DRSC09263 |
| 15 | – | sens | DRSC23086 |
| 4 | – | alpha-Man-Ib | DRSC14418 |
| 5 | – | alpha-Man-Ib | DRSC26131 |
| 9 | – | ymp | DRSC13720 |
| 9 | – | ymp | DRSC14482 |
| 22 | – | CG7544 | DRSC07023 |
| 5 | – | pip | DRSC11382 |
| 8 | – | pip | DRSC28579 |
| 16 | 9 | CG40198 | DRSC21068 |
| 9 | – | CG7768 | DRSC10914 |
| 3 | – | rictor | DRSC20071 |
| 26 | – | Ntl | DRSC03003 |
| 11 | – | Ntl | DRSC28007 |
| 12 | – | CG15308 | DRSC17995 |
| 12 | – | Nost | DRSC18037 |
| 13 | – | Nost | DRSC18338 |
| 3 | – | Nost | DRSC26627 |
| 4 | – | hubl | DRSC06825 |
| 1 | – | psd | DRSC03131 |
| 1 | – | psd | DRSC25415 |
